In article PMC12742733:
These are yes or no findings as the source states them, for the method shown. Binding seen in cells or lysates may run through a third protein. A result given as binding can be weak or reduced; the word gives no strength.

By UniProt entry, the sequences of proteins in these tests, tags left out. Where a name states a change or a piece, a line headed by the entry shows the natural chain unless it says otherwise. Residues count along the entry.
UniProt Q16620, residues 32-822: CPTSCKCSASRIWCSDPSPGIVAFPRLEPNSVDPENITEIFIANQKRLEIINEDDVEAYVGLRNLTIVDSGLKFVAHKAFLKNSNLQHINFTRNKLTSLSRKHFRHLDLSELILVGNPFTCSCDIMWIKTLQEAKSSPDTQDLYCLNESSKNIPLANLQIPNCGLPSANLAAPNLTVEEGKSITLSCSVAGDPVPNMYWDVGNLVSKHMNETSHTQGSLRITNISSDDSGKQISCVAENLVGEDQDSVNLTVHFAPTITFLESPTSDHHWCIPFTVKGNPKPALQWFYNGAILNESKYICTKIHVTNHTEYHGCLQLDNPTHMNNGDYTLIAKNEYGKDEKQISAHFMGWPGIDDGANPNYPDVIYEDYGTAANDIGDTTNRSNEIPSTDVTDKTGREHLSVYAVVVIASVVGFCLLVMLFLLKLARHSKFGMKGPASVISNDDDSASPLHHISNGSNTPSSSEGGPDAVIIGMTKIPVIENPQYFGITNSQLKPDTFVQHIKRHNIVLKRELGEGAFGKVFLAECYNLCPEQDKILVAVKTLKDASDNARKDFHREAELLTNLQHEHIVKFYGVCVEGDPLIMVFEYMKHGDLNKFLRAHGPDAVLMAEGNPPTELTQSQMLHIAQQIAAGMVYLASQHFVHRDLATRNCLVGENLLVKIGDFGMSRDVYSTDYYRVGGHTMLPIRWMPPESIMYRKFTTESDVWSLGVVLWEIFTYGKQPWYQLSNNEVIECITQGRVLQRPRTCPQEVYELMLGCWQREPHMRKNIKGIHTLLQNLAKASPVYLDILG
UniProt Q9H156: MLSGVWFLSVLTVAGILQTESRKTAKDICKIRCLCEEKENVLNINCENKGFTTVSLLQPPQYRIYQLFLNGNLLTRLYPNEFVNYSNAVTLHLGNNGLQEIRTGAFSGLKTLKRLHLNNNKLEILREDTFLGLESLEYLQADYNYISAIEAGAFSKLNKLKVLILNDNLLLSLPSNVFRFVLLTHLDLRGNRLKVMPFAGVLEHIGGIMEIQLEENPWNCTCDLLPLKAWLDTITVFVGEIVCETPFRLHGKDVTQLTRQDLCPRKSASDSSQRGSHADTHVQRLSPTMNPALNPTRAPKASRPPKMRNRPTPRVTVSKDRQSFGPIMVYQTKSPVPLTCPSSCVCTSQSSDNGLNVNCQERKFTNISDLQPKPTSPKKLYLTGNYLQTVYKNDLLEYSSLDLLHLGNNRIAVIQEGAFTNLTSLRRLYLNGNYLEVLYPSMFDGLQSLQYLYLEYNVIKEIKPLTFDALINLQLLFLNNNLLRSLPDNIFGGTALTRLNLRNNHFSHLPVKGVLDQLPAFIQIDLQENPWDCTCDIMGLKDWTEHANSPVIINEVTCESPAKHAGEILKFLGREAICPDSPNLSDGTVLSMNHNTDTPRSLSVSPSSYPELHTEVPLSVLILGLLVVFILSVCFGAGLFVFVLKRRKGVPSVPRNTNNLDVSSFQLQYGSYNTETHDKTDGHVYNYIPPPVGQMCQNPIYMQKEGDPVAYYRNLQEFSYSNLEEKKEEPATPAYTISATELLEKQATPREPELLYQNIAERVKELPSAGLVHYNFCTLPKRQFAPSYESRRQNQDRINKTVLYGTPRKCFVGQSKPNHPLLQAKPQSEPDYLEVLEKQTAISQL

Target: TrkB (pCMV-SPORT6-TrkB), untagged (UniProt Q16620)
Assay: co-IP; HEK293T cells transfected with pCMV-SPORT6-TrkB and pDisplay-SLITRK2 plasmids; lysis in 20 mM Tris pH 7.4, 1.0% Triton X-100, 0.1% SDS, 150 mM NaCl, 10% glycerol; antibody overnight at 4 °C, protein A-Sepharose; immunoblot

## HA-tagged SLITRK2 ΔPDZ (from UniProt Q9H156) (receptor)
  binding: binds
